Data as given in PubChem BioAssay AID1224826 (NIAID, 2016).

Purpose: 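Regulators of Tlr4 signalling leading to Tnf-alpha expression in macrophages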 (primary screen)
Cells: RAW264.7 G9 macrophages from mouse bearing reporters for p65 (GFP) and the Tnf promoter (mCherry)
Reagent: siRNA pool against mouse genes, 100 nM
Duration: 16 h of LPS stimulation, after 2 days of siRNA transfection
Conditions: bacterial lipopolysaccharide (Salmonella minnesota R595), 10 ng/ml
Measurement: 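Nuclear mCherry signal of the Tnf promoter reporter measured by imaging after background removal, scaled to each plate median and turned into robust z-scores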
Direction: Tnf reporter robust z-score: higher = stronger Tnf promoter reporter signal after LPS
Hit rule: 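Called active when robust z-score is at most -1.3, matching the median of the Tlr4 knock-down control, or over 3; control wells and wells with under 50 cells never active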
Calls: active = Tnf reporter clearly lowered or raised; inactive = no clear change in Tnf reporter
The whole screen tested about 17,000 reagents; below is a random part of them. About 1,110 of them (6.6%) were called active. 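Active means lowered or raised reporter signal; replicate intensities are raw and not normalised per plate.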 A number with no mark means an inactive call. Not all columns of the deposit are shown.

Glis3 (GeneID 226075) showed fewer than 50 cells in well fewer than 50 cells per well; well left out of calls.
Tbcc (GeneID 72726) showed Tnf reporter robust z-score -0.42; fewer than 50 cells in well enough cells in well.
Faf2 (GeneID 76577) showed fewer than 50 cells in well fewer than 50 cells per well; well left out of calls.
Vmn1r74 (GeneID 171240) gave Tnf reporter robust z-score 1.23; fewer than 50 cells in well enough cells in well.
Net1 (GeneID 56349) scored Tnf reporter robust z-score -0.6; fewer than 50 cells in well enough cells in well.
After knock-down of Tgoln1 (GeneID 22134), the screen gave Tnf reporter robust z-score 0.91; fewer than 50 cells in well enough cells in well.
For Doc2a (GeneID 13446), the entry reads Tnf reporter robust z-score 0.67; fewer than 50 cells in well enough cells in well.
With knock-down of Ric8a (GeneID 101489), the screen gave Tnf reporter robust z-score 0.41; fewer than 50 cells in well enough cells in well.
For Or5m10b (GeneID 258582), the entry reads Tnf reporter robust z-score 0.92; fewer than 50 cells in well enough cells in well.
Silencing of Hpgds (GeneID 54486) gave: Tnf reporter robust z-score -0.57; fewer than 50 cells in well enough cells in well.
After knock-down of Or13p4 (GeneID 258708) the results were Tnf reporter robust z-score -0.79; fewer than 50 cells in well enough cells in well.
With knock-down of B3gat3 (GeneID 72727) the results were Tnf reporter robust z-score -0.26; fewer than 50 cells in well enough cells in well.
Silencing of Qrfp (GeneID 227717) came out at: Tnf reporter robust z-score -0.33; fewer than 50 cells in well enough cells in well.
Cpne7 (GeneID 102278) showed Tnf reporter robust z-score 1.15; fewer than 50 cells in well enough cells in well.
After knock-down of Capn8 (GeneID 170725), the screen gave Tnf reporter robust z-score -0.49; fewer than 50 cells in well enough cells in well.
Siral2 (GeneID 73225) showed fewer than 50 cells in well fewer than 50 cells per well; well left out of calls.
Knock-down of Tyrp1 (GeneID 22178) came out at: Tnf reporter robust z-score 0.98; fewer than 50 cells in well enough cells in well.
Silencing of Eno4 (GeneID 226265) gave: Tnf reporter robust z-score 1.25; fewer than 50 cells in well enough cells in well.
A730020M07Rik (GeneID 100503044) scored Tnf reporter robust z-score 0.67; fewer than 50 cells in well enough cells in well.
For Defb40 (GeneID 360217), the values are Tnf reporter robust z-score -0.74; fewer than 50 cells in well enough cells in well.
Pus7 (GeneID 78697) scored Tnf reporter robust z-score 0.02; fewer than 50 cells in well enough cells in well.
With knock-down of Nr1i3 (GeneID 12355) the results were Tnf reporter robust z-score -0.38; fewer than 50 cells in well enough cells in well.
Silencing of Wdr12 (GeneID 57750) gave: Tnf reporter robust z-score 0.46; fewer than 50 cells in well enough cells in well.
Against Prmt7 (GeneID 214572) the deposit lists Tnf reporter robust z-score 0.46; fewer than 50 cells in well enough cells in well.
Or52b4 (GeneID 259083) gave Tnf reporter robust z-score 4.07 (active); fewer than 50 cells in well enough cells in well.
Depletion of Mettl2 (GeneID 52686) gave: Tnf reporter robust z-score -0.65; fewer than 50 cells in well enough cells in well.
With knock-down of Asah2 (GeneID 54447) the results were Tnf reporter robust z-score 0.93; fewer than 50 cells in well enough cells in well.

Already shown: an excerpt of the list.
Prmt7 (GeneID 214572) — Tnf reporter robust z-score: 0.46; fewer than 50 cells in well: enough cells in well
Or52b4 (GeneID 259083) — Tnf reporter robust z-score: 4.07 (active); fewer than 50 cells in well: enough cells in well
Mettl2 (GeneID 52686) — Tnf reporter robust z-score: -0.65; fewer than 50 cells in well: enough cells in well
Asah2 (GeneID 54447) — Tnf reporter robust z-score: 0.93; fewer than 50 cells in well: enough cells in well
